These are yes or no findings as the source states them, for the method shown. Binding seen in cells or lysates may run through a third protein. Some entries that bind do so weakly or less than the wild type.
Target: Flag-p62 (UniProt Q13501)
Assay: co-IP; HEK293 p62-/- cells transfected with GFP, GFP-TDP25, Flag and Flag-p62 for 24 h, with or without SC75741 (5 uM) for another 6 h; immunoprecipitation and immunoblot

Amino acid sequences for entries named in this document (tags omitted). Residues count along the entry.
UniProt Q9BXW4, residues 1-126: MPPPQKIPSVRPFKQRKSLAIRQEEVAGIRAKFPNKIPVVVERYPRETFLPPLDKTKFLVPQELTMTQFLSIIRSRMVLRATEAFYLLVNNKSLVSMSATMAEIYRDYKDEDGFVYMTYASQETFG

binding: binds
Substance: LC3C (in HEK293 p62-/- cells) (from UniProt Q9BXW4 1-126)

Reference: article PMC8586708, “SC75741, A Novel c-Abl Inhibitor, Promotes the Clearance of TDP25 Aggregates via ATG5-Dependent Autophagy Pathway” (Frontiers in Pharmacology, 2021)
